Measured values as given in patent US6489440B1 (Basilea Pharmaceutica AG, priority 1998, dated 2002).
HELM strings list residues between dots; [ac] is acetyl, [am] amide, other brackets name non-standard units.

Assay: general procedure: peptide synthesis; BOP reagent, HOBT hydrate, N,N-diisopropylethylamine
Details: late stage modification step

| Substance | step yield [%] |
| --- | --- |
| N-Boc derivative (N(orn)-Boc-IX) of the ornitine residue of the compound (IX) | 45 |
| N-Boc derivative (N(va1)-Boc-IX) of the valine residue of the compound (IX) | 6 |
| PEPTIDE1{[HA16].[xThr].[xAla].[xTyr].[xVal].[x4Hyp].[xThr].[xThr].[x3Hyp].[x3OHGln].G.[xThr].[xOrnSar]}$PEPTIDE1,PEPTIDE1,1:R1-13:R2$$$V2.0 | 39 |
